# Laboratory results published in US10781229B2, “Tris- or neopentyl glycol-based amphiphiles and uses thereof” (Industry-University Cooperation Foundation Hanyang …, priority 2015, dated 2020).
# At least one structure is not confirmed: it was looked up by name or label, or the drawing left a doubt.
# Biological target: LeuT E192C^TMR (Aquifex aeolicus, UniProt O67854, E192C)
# Assay: Site-directed fluorescence (iodide) quenching of LeuT E192C-TMR, Stern-Volmer analysis
# Format: biochemical
# Settings: leucine-induced change of iodide accessibility of TMR, CMC+0.04% by weight detergent; means [s.e.m. interval]
# Description: A principle of this experiment is as follows: A cysteine residue was inserted into a 192th LeuT site (E192C), followed by coupling with a thiol-reactive fluorophore (tetramethylrhodamine-5-maleimide, TMR). The prepared LeuT E192C^TMR, as TMR-coupled LeuT, is an excellent system to sensitively monitor protein structure change in response to ligand coupling. […] Due to such change, TMR fluorescence molecules exposed to an aqueous solution become closer to iodide (I^−), as a quencher dissolved in water, whereby strong fluorescence quenching is caused. TMR quenching intensity by leucine coupling may be represented by Stern-Volmer plotting and thus structural flexibility of a protein may be directly measured. Ligand bindability of the TMR-labeled transporter was measured using SPA while increasing the amount of [^3H]leucine.
# In particular, structure, expression, purification, and fluorescence labeling were performed according to the following methods. […] In summary, a residue of the E192 was mutated with cysteine using QuikChange (Agilent Technologies) such that fluorescence coupling was accomplished by maleimide labeling. […]
# Fluorescence spectroscopy was carried out according to the following method. A fluorescence-based experiment was carried out by diluting 0.5 μg ml^−1 of fluorescence-labeled LeuT with buffer A supplemented with CMC+0.04% by weight of DDM, MNG-3 or NDT-C11. […]
structure (smiles),measurement,value
CCCCCCCCCCC(CCCCCCCCCC)(CO[C@@H]1O[C@H](CO)[C@@H](O[C@H]2O[C@H](CO)[C@@H](O)[C@H](O)[C@H]2O)[C@H](O)[C@H]1O)CO[C@@H]1O[C@H](CO)[C@@H](O[C@H]2O[C@H](CO)[C@@H](O)[C@H](O)[C@H]2O)[C@H](O)[C@H]1O [MNG-3],Δ KSV,0.37 [0.32; 0.43] M^−1
